# Results reported in PubChem BioAssay AID330 (DTP/NCI, 2004).
# The list shows only some results of the screen, not a fair sample: it gathers tests that were run many times, whatever their T/C, doses with no T/C, and many T/C values between a quarter and a half above the control. Further doses and runs are listed elsewhere. T/C gives the treated animals as a percentage of the vehicle group. Some doses have a count of surviving animals in place of a T/C: the source files T/C as zero there, which appears to mark a toxic dose or a test without result, not a measured value. Some survivor counts are full or nearly so, which does not show that the dose was tolerated: the source hardly ever lists a survival T/C far under the control, and the zero likely stands for such cases as well. Counts of survivors are from the toxicity check (mostly the fifth day) where no day follows; animals may have died later. Schedules are NCI's codes, read here as Q, the interval in days (D) or hours (H), X, the number of doses. Some doses were run more than once; the results are listed from low to high. Counts like (3×) give the number of equal values in this list. For survival time, the PubChem record calls one and a half times the control and up active, and a quarter to a half above the control has no call in these data; cut-offs in other NCI protocols can differ. Some T/C values carry the count of animals alive at the toxicity check (mostly the fifth day); without a count, all were alive then.
# Test system: P388 leukemia ip, CD2F1 mice, survival T/C
# Test: NCI In Vivo Anticancer Drug Screen. Data for tumor model P388 Leukemia (intraperitoneal) in CD2F1 (CDF1) mice
# Conditions: T/C endpoint: median survival time, higher T/C = longer survival
# [1] = dose: 200.0 mg/kg/injection, schedule: Q01DX005 (ip), vehicle: Klucel (hydroxypropylcellulose) (HPC)
# [2] = dose: 200.0 mg/kg/injection, schedule: Q01DX005 (ip), vehicle: saline with Tween-80
# [3] = dose: 400.0 mg/kg/injection, schedule: Q01DX009 (ip), vehicle: saline with Tween-80
# [4] = dose: 100.0 mg/kg/injection, schedule: Q01DX005 (ip), vehicle: saline with Tween-80
# [5] = dose: 100.0 mg/kg/injection, schedule: Q01DX009 (ip), vehicle: saline
structure (smiles),measurement,setting,value
Cc1ccc(C(=O)NC2C(=O)NC(C(C)C)C(=O)N3CCCC3C(=O)N(C)CC(=O)N(C)C(C(C)C)C(=O)OC2C)c2c1Oc1c(c(C(=O)NC3C(=O)NC(C(C)C)C(=O)N4CCCC4C(=O)N(C)CC(=O)N(C)C(C(C)C)C(=O)OC3C)c3nc(-c4ccccc4)c(=O)oc3c1C)N2 (stereo not given),T/C,"dose: 0.13 mg/kg/injection, schedule: Q01DX005 (ip), vehicle: water",125 % of control
same,T/C,"dose: 0.25 mg/kg/injection, schedule: Q01DX005 (ip), vehicle: water",145 % of control
same,T/C,"dose: 0.5 mg/kg/injection, schedule: Q01DX005 (ip), vehicle: water",126 % of control
same,survivor count,"dose: 1.0 mg/kg/injection, schedule: Q01DX005 (ip), vehicle: water",3 of 6 and 5 of 6
same,survivor count,"dose: 2.0 mg/kg/injection, schedule: Q01DX005 (ip), vehicle: water",0 of 6
same,survivor count,"dose: 4.0 mg/kg/injection, schedule: Q01DX005 (ip), vehicle: water",0 of 6
COc1ccc2c3c([nH]c2c1[N+](=O)[O-])C(C)NCC3 (stereo not given),survivor count,"dose: 100.0 mg/kg/injection, schedule: Q01DX005 (ip), vehicle: Klucel (hydroxypropylcellulose) (HPC)",0 of 6
same,survivor count,[1],0 of 6
CC(C)N(C(C)C)P1(=NC(C)(C)C)N(C(C)(C)C)P(=NC(C)(C)C)(N(C(C)C)C(C)C)N1C(C)(C)C (stereo not given),survivor count,[1],3 of 6
OC1CCC(C2C3CCCCC3C3CCCCC3C2C2CCC(O)CC2)CC1 (stereo not given),survivor count,[2],4 of 5
O=C1C(Cl)=C(Cl)C(=O)C2CC=CCC12 (stereo not given),survivor count,"dose: 25.0 mg/kg/injection, schedule: Q01DX001 (ip), vehicle: saline with Tween-80",1 of 6
same,survivor count,"dose: 50.0 mg/kg/injection, schedule: Q01DX001 (ip), vehicle: saline with Tween-80",0 of 6
same,survivor count,"dose: 100.0 mg/kg/injection, schedule: Q01DX001 (ip), vehicle: saline with Tween-80",0 of 6
same,survivor count,"dose: 200.0 mg/kg/injection, schedule: Q01DX001 (ip), vehicle: saline with Tween-80",0 of 6
same,survivor count,"dose: 400.0 mg/kg/injection, schedule: Q01DX001 (ip), vehicle: saline with Tween-80",0 of 6
N#Cc1cnn(-c2cc(Cl)ccc2Cl)c1N,survivor count,[3],1 of 6 and 3 of 6
COC1=C(O)C(=O)N(C)C(=O)C1,survivor count,"dose: 7.5 mg/kg/injection, schedule: Q01DX005 (ip), vehicle: Klucel (hydroxypropylcellulose) (HPC)",0 of 6
same,survivor count,"dose: 15.0 mg/kg/injection, schedule: Q01DX005 (ip), vehicle: Klucel (hydroxypropylcellulose) (HPC)",0 of 6
same,survivor count,"dose: 60.0 mg/kg/injection, schedule: Q01DX005 (ip), vehicle: Klucel (hydroxypropylcellulose) (HPC)",0 of 6
same,survivor count,"dose: 120.0 mg/kg/injection, schedule: Q01DX005 (ip), vehicle: Klucel (hydroxypropylcellulose) (HPC)",0 of 6
same,survivor count,"dose: 240.0 mg/kg/injection, schedule: Q01DX005 (ip), vehicle: Klucel (hydroxypropylcellulose) (HPC)",0 of 6
COc1cc(N=Nc2ccccc2)cc(/C=N\NC(=S)Nc2ccccc2)c1O,survivor count,[2],1 of 6
COC(=O)c1cccc2c(Br)cc3ccccc3c12,survivor count,"dose: 75.0 mg/kg/injection, schedule: Q04DX003 (ip), vehicle: Klucel (hydroxypropylcellulose) (HPC)",6 of 6
NC(=O)N/N=C1\CCC2CCCCC2C1 (stereo not given),survivor count,"dose: 200.0 mg/kg/injection, schedule: Q01DX001 (ip), vehicle: Klucel (hydroxypropylcellulose) (HPC)",3 of 6
same,survivor count,"dose: 400.0 mg/kg/injection, schedule: Q01DX001 (ip), vehicle: Klucel (hydroxypropylcellulose) (HPC)",0 of 6
COc1ccc2c(c1)c(NCCCCCC#N)cc(C)[n+]2C,survivor count,"dose: 50.0 mg/kg/injection, schedule: Q01DX005 (ip), vehicle: saline with Tween-80",3 of 5
same,survivor count,[4],1 of 5
same,survivor count,[2],0 of 5
CN=C(N)NN=C(c1ccc(C)cc1)c1ccc(C)cc1,survivor count,"dose: 50.0 mg/kg/injection, schedule: Q04DX002 (ip), vehicle: saline with Tween-80",3 of 6
same,survivor count,"dose: 400.0 mg/kg/injection, schedule: Q04DX002 (ip), vehicle: saline with Tween-80",3 of 6
CN(C)/N=N/c1nc[nH]c1C(N)=O,T/C,"dose: 25.0 mg/kg/injection, schedule: Q01DX009 (ip), vehicle: distilled water + Tween-80, evaluated on day 20",113 % of control
same,T/C,"dose: 25.0 mg/kg/injection, schedule: Q01DX009 (ip), vehicle: distilled water + Tween-80, evaluated on day 30","102, 110, 111, 112, 113 (2×), 116 (2×), 116 [5 of 6 alive], 124, 127 % of control"
same,T/C,"dose: 25.0 mg/kg/injection, schedule: Q01DX009 (ip), vehicle: saline with Tween-80",129 % of control
same,T/C,"dose: 37.5 mg/kg/injection, schedule: Q01DX005 (ip), vehicle: distilled water + Tween-80",130 % of control
same,T/C,"dose: 50.0 mg/kg/injection, schedule: Q01DX009 (ip), vehicle: distilled water + Tween-80, evaluated on day 20",109 % of control
same,T/C,"dose: 50.0 mg/kg/injection, schedule: Q01DX009 (ip), vehicle: distilled water + Tween-80, evaluated on day 30","116 (3×), 117, 124, 125, 129, 133, 138, 150, 153 % of control"
same,T/C,"dose: 75.0 mg/kg/injection, schedule: Q01DX005 (ip), vehicle: distilled water + Tween-80",140 % of control
same,T/C,[4],130 % of control
same,T/C,"dose: 100.0 mg/kg/injection, schedule: Q01DX009 (ip), vehicle: distilled water + Tween-80, evaluated on day 20",134 % of control
same,T/C,"dose: 100.0 mg/kg/injection, schedule: Q01DX009 (ip), vehicle: distilled water + Tween-80, evaluated on day 30","106, 133, 135, 145, 146 (2×), 150, 161, 162, 163, 190 % of control"
same,T/C,"dose: 100.0 mg/kg/injection, schedule: Q01DX009 (ip), vehicle: saline with Tween-80",126 % of control
same,T/C,[2],142 % of control (2×)
same,T/C,"dose: 200.0 mg/kg/injection, schedule: Q01DX009 (ip), vehicle: distilled water + Tween-80, evaluated on day 20",137 % of control
same,T/C,"dose: 200.0 mg/kg/injection, schedule: Q01DX009 (ip), vehicle: distilled water + Tween-80, evaluated on day 30","116, 117, 118, 124, 125, 138, 141, 148 [5 of 6 alive], 153, 168, 187 % of control"
same,T/C,"dose: 200.0 mg/kg/injection, schedule: Q01DX009 (ip), vehicle: saline with Tween-80",135 % of control
same,T/C,"dose: 400.0 mg/kg/injection, schedule: Q01DX005 (ip), vehicle: Klucel (hydroxypropylcellulose) (HPC)",125 % of control
same,survivor count,"dose: 400.0 mg/kg/injection, schedule: Q01DX005 (ip), vehicle: saline with Tween-80",6 of 6
same,T/C,"dose: 400.0 mg/kg/injection, schedule: Q01DX009 (ip), vehicle: distilled water + Tween-80, evaluated on day 20",189 % of control
same,T/C,"dose: 400.0 mg/kg/injection, schedule: Q01DX009 (ip), vehicle: distilled water + Tween-80, evaluated on day 30",97 % of control [5 of 6 alive]
same,survivor count,"dose: 400.0 mg/kg/injection, schedule: Q01DX009 (ip), vehicle: distilled water + Tween-80","4 of 6 (2×), 5 of 6, 6 of 6 (2×)"
same,survivor count,[3],0 of 6
C[N+]1(Cc2ccccc2[N+](=O)[O-])CCCC1,survivor count,"dose: 37.5 mg/kg/injection, schedule: Q01DX009 (ip), vehicle: saline with Tween-80",0 of 6
same,survivor count,"dose: 75.0 mg/kg/injection, schedule: Q01DX009 (ip), vehicle: saline with Tween-80",0 of 6
same,survivor count,"dose: 150.0 mg/kg/injection, schedule: Q01DX009 (ip), vehicle: saline with Tween-80",0 of 6
C[CH2][Sn]([Br])([CH2]C)[c]1ccccc1CN(C)C,survivor count,"dose: 50.0 mg/kg/injection, schedule: Q01DX009 (ip), vehicle: saline",3 of 6
same,T/C,[5],130 % of control
same,survivor count,[5],2 of 6 and 3 of 6
same,survivor count,"dose: 200.0 mg/kg/injection, schedule: Q01DX009 (ip), vehicle: saline",6 of 6
CCC1(O)CC2CN(CCc3c([nH]c4ccccc34)C(C(=O)OC)(c3cc4c(cc3OC)N(C)C3C(O)(C(=O)OC)CC5(CC)C=CCN6CCC43C65)C2)C1 (stereo not given),T/C,"dose: 2.0 mg/kg/injection, schedule: Q01DX001 (ip), vehicle: saline",128 and 135 % of control
same,T/C,"dose: 4.0 mg/kg/injection, schedule: Q01DX001 (ip), vehicle: saline",145 % of control
